Source: paper PMC11705627
These are yes or no findings as the source states them, for the method shown. Binding seen in cells or lysates may run through a third protein. Some entries that bind do so weakly or less than the wild type.

Target: T1, interferon regulatory factor 9 (human (endogenous in CAL27 and SCC25)), Q00978
T1 chain: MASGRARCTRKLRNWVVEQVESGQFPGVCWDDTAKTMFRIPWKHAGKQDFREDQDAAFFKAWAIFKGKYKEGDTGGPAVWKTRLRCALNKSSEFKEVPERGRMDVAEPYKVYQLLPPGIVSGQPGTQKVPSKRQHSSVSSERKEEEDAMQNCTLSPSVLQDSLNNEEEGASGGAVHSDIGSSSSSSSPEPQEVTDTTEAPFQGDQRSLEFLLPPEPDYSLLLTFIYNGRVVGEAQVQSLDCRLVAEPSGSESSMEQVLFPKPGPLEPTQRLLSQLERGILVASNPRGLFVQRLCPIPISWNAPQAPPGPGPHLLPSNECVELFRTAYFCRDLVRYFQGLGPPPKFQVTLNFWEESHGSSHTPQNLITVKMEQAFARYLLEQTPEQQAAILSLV
Assay: co-IP; lysates of CAL27 and SCC25 cells transfected with Si FAT1 or control siRNAs, with or without CaMKII knockdown, lysed 0.5 h on ice; IP with anti-IRF9 antibody or control IgG at 4 °C overnight, protein A/G magnetic beads 1 h at room temperature; western blot for p-STAT1
Settings: remark: other sources report otherwise

B1: phosphorylated STAT1, P42224 1-750 (protein)
chain: MSQWYELQQLDSKFLEQVHQLYDDSFPMEIRQYLAQWLEKQDWEHAANDVSFATIRFHDLLSQLDDQYSRFSLENNFLLQHNIRKSKRNLQDNFQEDPIQMSMIIYSCLKEERKILENAQRFNQAQSGNIQSTVMLDKQKELDSKVRNVKDKVMCIEHEIKSLEDLQDEYDFKCKTLQNREHETNGVAKSDQKQEQLLLKKMYLMLDNKRKEVVHKIIELLNVTELTQNALINDELVEWKRRQQSACIGGPPNACLDQLQNWFTIVAESLQQVRQQLKKLEELEQKYTYEHDPITKNKQVLWDRTFSLFQQLIQSSFVVERQPCMPTHPQRPLVLKTGVQFTVKLRLLVKLQELNYNLKVKVLFDKDVNERNTVKGFRKFNILGTHTKVMNMEESTNGSLAAEFRHLQLKEQKNAGTRTNEGPLIVTEELHSLSFETQLCQPGLVIDLETTSLPVVVISNVSQLPSGWASILWYNMLVAEPRNLSFFLTPPCARWAQLSEVLSWQFSSVTKRGLNVDQLNMLGEKLLGPNASPDGLIPWTRFCKENINDKNFPFWLWIESILELIKKHLLPLWNDGCIMGFISKERERALLKDQQPGTFLLRFSESSREGAITFTWVERSQNGGEPDFHAVEPYTKKELSAVTFPDIIRNYKVMAAENIPENPLKYLYPNIDKDHAFGKYYSRPKEAPEPMELDGPKGTGYIKTELISVSEVHPSRLQTTDNLLPMSPEEFDEVSRIVGSVEFDSMMNTV
modifications: here or on the partner: phosphorylated (p-STAT1; site not stated)
binding: binds
